Results published in article doi:10.1101/2023.10.04.560926.
Results are given in words; binding and its absence hold for the method and conditions named. In cells and extracts the contact can be indirect. A yes stands for co-enrichment or nearness to the bait. Other partners may have been found. For part of these data: Tags and fused reporters may be left off the sequences shown.

Chains of the proteins cited; added tags and fusions are not shown.
UniProt P29597: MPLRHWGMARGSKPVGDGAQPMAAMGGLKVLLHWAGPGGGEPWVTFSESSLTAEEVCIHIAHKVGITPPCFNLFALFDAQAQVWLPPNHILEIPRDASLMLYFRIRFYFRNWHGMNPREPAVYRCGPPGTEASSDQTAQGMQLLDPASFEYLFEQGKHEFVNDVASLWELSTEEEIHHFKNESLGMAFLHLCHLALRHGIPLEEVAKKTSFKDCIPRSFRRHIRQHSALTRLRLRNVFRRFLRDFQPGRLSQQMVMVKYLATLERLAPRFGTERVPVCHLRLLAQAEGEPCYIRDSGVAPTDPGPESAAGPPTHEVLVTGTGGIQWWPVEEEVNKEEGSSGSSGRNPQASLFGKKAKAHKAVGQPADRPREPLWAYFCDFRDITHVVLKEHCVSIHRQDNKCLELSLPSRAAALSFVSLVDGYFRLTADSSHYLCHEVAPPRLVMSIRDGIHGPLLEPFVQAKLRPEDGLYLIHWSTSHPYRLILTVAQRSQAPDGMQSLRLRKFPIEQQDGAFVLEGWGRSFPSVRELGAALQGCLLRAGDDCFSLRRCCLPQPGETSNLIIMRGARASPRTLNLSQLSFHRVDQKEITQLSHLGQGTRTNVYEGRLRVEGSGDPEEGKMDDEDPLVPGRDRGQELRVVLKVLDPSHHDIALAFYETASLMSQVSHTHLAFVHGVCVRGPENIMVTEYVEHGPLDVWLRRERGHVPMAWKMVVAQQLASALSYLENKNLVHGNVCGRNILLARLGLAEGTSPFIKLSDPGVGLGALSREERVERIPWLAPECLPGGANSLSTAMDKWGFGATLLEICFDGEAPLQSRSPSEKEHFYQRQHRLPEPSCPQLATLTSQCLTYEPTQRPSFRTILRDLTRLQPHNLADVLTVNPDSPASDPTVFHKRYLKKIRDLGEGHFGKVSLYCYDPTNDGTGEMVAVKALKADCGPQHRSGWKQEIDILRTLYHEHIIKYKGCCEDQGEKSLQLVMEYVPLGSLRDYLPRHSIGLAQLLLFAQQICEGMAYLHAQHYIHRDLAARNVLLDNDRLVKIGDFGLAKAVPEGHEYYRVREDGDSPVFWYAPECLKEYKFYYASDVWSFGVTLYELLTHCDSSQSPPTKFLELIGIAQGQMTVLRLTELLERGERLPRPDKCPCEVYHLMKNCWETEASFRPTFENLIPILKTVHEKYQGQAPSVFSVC

Tests used:
Test in all cases: proximity labelling
[1] = target: TurboID-V5-STAT2 (human), P52630; settings: remark: other sources report otherwise
TurboID-V5-TYK2 (human) = TurboID-V5-TYK2 (human) (UniProt P29597)
[2] = target: T1, TurboID-V5-IRF9 (human), Q00978; settings: remark: other sources report otherwise
T1 chain: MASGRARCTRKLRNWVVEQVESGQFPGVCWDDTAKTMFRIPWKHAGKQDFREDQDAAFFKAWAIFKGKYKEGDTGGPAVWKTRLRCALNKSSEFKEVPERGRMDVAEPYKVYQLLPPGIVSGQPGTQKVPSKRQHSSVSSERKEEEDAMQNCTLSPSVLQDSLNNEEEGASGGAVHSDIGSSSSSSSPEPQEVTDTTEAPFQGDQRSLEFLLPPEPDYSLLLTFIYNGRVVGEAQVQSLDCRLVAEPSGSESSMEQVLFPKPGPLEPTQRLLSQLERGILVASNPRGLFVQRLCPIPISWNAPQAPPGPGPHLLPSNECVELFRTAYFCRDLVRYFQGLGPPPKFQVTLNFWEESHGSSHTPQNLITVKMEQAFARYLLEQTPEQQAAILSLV

B1: TurboID-V5-IRF9, Q00978 1-393 (protein)
chain: MASGRARCTRKLRNWVVEQVESGQFPGVCWDDTAKTMFRIPWKHAGKQDFREDQDAAFFKAWAIFKGKYKEGDTGGPAVWKTRLRCALNKSSEFKEVPERGRMDVAEPYKVYQLLPPGIVSGQPGTQKVPSKRQHSSVSSERKEEEDAMQNCTLSPSVLQDSLNNEEEGASGGAVHSDIGSSSSSSSPEPQEVTDTTEAPFQGDQRSLEFLLPPEPDYSLLLTFIYNGRVVGEAQVQSLDCRLVAEPSGSESSMEQVLFPKPGPLEPTQRLLSQLERGILVASNPRGLFVQRLCPIPISWNAPQAPPGPGPHLLPSNECVELFRTAYFCRDLVRYFQGLGPPPKFQVTLNFWEESHGSSHTPQNLITVKMEQAFARYLLEQTPEQQAAILSLV
binding [1]: binds

B2: PJA2 (endogenous, MRC-5/hTERT) (enzyme, UniProt O43164 1-708)
chain: MSQYTEKEPAAMDQESGKAVWPKPAGGYQTITGRRYGRRHAYVSFKPCMTRHERSLGRAGDDYEVLELDDVPKENSSGSSPLDQVDSSLPSEPIFEKSETEIPTCGSALNQTTESSQSFVAVHHSEEGRDTLGSSTNLHNHSEGEYIPGACSASSVQNGIALVHTDSYDPDGKHGEDNDHLQLSAEVVEGSRYQESLGNTVFELENREAEAYTGLSPPVPSFNCEVRDEFEELDSVPLVKSSAGDTEFVHQNSQEIQRSSQDEMVSTKQQNNTSQERQTEHSPEDAACGPGHICSEQNTNDREKNHGSSPEQVVRPKVRKLISSSQVDQETGFNRHEAKQRSVQRWREALEVEESGSDDLLIKCEEYDGEHDCMFLDPPYSRVITQRETENNQMTSESGATAGRQEVDNTFWNGCGDYYQLYDKDEDSSECSDGEWSASLPHRFSGTEKDQSSSDESWETLPGKDENEPELQSDSSGPEEENQELSLQEGEQTSLEEGEIPWLQYNEVNESSSDEGNEPANEFAQPAFMLDGNNNLEDDSSVSEDLDVDWSLFDGFADGLGVAEAISYVDPQFLTYMALEERLAQAMETALAHLESLAVDVEVANPPASKESIDGLPETLVLEDHTAIGQEQCCPICCSEYIKDDIATELPCHHFFHKPCVSIWLQKSGTCPVCRRHFPPAVIEASAAPSSEPDPDAPPSNDSIAEAP
binding (TurboID-V5-TYK2 (human)): binds

B3: TurboID-V5-STAT1, P42224-1 1-750 (protein)
chain: MSQWYELQQLDSKFLEQVHQLYDDSFPMEIRQYLAQWLEKQDWEHAANDVSFATIRFHDLLSQLDDQYSRFSLENNFLLQHNIRKSKRNLQDNFQEDPIQMSMIIYSCLKEERKILENAQRFNQAQSGNIQSTVMLDKQKELDSKVRNVKDKVMCIEHEIKSLEDLQDEYDFKCKTLQNREHETNGVAKSDQKQEQLLLKKMYLMLDNKRKEVVHKIIELLNVTELTQNALINDELVEWKRRQQSACIGGPPNACLDQLQNWFTIVAESLQQVRQQLKKLEELEQKYTYEHDPITKNKQVLWDRTFSLFQQLIQSSFVVERQPCMPTHPQRPLVLKTGVQFTVKLRLLVKLQELNYNLKVKVLFDKDVNERNTVKGFRKFNILGTHTKVMNMEESTNGSLAAEFRHLQLKEQKNAGTRTNEGPLIVTEELHSLSFETQLCQPGLVIDLETTSLPVVVISNVSQLPSGWASILWYNMLVAEPRNLSFFLTPPCARWAQLSEVLSWQFSSVTKRGLNVDQLNMLGEKLLGPNASPDGLIPWTRFCKENINDKNFPFWLWIESILELIKKHLLPLWNDGCIMGFISKERERALLKDQQPGTFLLRFSESSREGAITFTWVERSQNGGEPDFHAVEPYTKKELSAVTFPDIIRNYKVMAAENIPENPLKYLYPNIDKDHAFGKYYSRPKEAPEPMELDGPKGTGYIKTELISVSEVHPSRLQTTDNLLPMSPEEFDEVSRIVGSVEFDSMMNTV
binding [2]: binds
